System: P. aeruginosa
Assay: microbroth dilution assay (MIC, resazurin)
Assay type: cell-based, Pseudomonas aeruginosa
Conditions: cytotoxicity IC50 (μM) HEK-293 / MIC (μM) P. aeruginosa
Procedure: The antibacterial efficacy of the chosen compounds was assessed through the microbroth dilution assay conducted in 96-well culture plates.[21] A stock solution with a concentration of 20 mg/mL was prepared in dimethyl sulfoxide (DMSO). Subsequently, autoclaved nutrient broth (100 μL) was introduced into the culture plate wells, with the initial row of the microtiter plate receiving 100 μL of the test material. 2-fold serial dilutions of the test compounds were then meticulously executed. To serve as an indicator, 20 μL of 2× resazurin solution was added to each well. Finally, 10 μL of the bacterial suspension was incorporated into each well, yielding a final concentration of 5 × 10^6 CFU/mL. The experiment was conducted in duplicate, and the plates were incubated at 37 °C. After 18 h, the plates were scrutinized for any change in color indicative of bacterial growth.

Structure (SMILES): CC(=O)c1c(O)ccc(Br)c1O [compound 2, 3-Bromo-2,6-dihydroxyacetophenone]
- therapeutic index (IC50/MIC) P. aeruginosa: 3

Structure (SMILES): CC(=O)c1cc(Br)c(O)c(Br)c1O [compound 3, 3,5-Dibromo-2,4-dihydroxyacetophenone]
- therapeutic index (IC50/MIC) P. aeruginosa: 2

Reference: article PMC11447708, “Comprehensive Exploration of Bromophenol Derivatives: Promising Antibacterial Agents against SA and MRSA” (ACS Omega, 2024)
